Measurements reported in PubChem BioAssay AID493014 (National Center for Advancing Translational Sciences (NCATS), 2011).
Some of the results follow. The main result of the screen is listed elsewhere. These columns were measured beside it and carry no call. Most of these compounds were active or inconclusive in the main read-out, so they are no random draw. Potencies come from curve fits of mixed quality, noted in brackets.

Assay: qHTS Assay to Find Inhibitors of Chronic Active B-Cell Receptor Signaling
Settings: ABC-DLBCL IkBa-CBG/CBR reporter, luminescence ratio (green luciferase fused to IkBa over red control in TMD8 lymphoma cells), 4 h
Method in brief: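 TMD8 ABC-DLBCL cells carrying doxycycline-inducible green luciferase fused to IkappaBalpha plus unfused red luciferase were exposed to compounds (up to 46 uM) for 4 hrs at 37C. Activity came from the overlap-corrected green/red luminescence ratio.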

[1] = measured here: CBR red luminescence, cell number
[2] = measured here: IkBa-CBG green luminescence

Which AC50 [1] does the source give for CCN(C(=O)COC(=O)c1cc(=O)c2ccccc2o1)c1c(N)n(Cc2ccccc2)c(=O)[nH]c1=O here?
The AC50 was 0.231 µM [rising, full curve, poor fit].

With CN1CC(c2ccccc2)C(c2ccc(Cl)cc2)=N1 (stereo unspecified) as the compound, how does the AC50 [1] read?
Its AC50 is 13 µM [rising, partial curve, poor fit].

For N#C/C(=C\c1cn(-c2ccccc2)nc1-c1ccccc1)S(=O)(=O)c1ccccc1, which AC50 [1] is on record?
Its AC50 is 7.31 µM [falling, partial curve, poor fit].

Which AC50 [1] does the source give for N#CC(=NCc1cccnc1)C1=C(O)c2ccccc2C1=O here?
Its AC50 is 35.5 µM [falling, single point].

Which AC50 [1] does the source give for Cc1nc(-c2cc(-c3ccc(Cl)cc3)no2)cs1 here?
The AC50 was 3.16 µM [falling, full curve, poor fit].

Which AC50 [1] does the source give for CCOC(=O)NC(CC(=O)O)c1ccc(OC)cc1 (stereo unspecified) here?
The AC50 was 3.98 µM [rising, single point].

Which AC50 [1] does the source give for Cc1ccc(NC(=O)c2ccc3c(c2)C(=O)N(Cc2cccnc2)C3=O)c(C)c1 here?
Its AC50 is 11.2 µM [rising, partial curve].

With CC(C)CCNC(=O)NC(=O)COC(=O)c1cc(S(=O)(=O)N2CCOCC2)ccc1N1CCCCC1 as the compound, how does the AC50 [1] read?
The AC50 was 10.3 µM [falling, single point].

For Cc1cccc(N=Nc2c(C)nn(-c3ccccc3)c2N)c1C, which AC50 [1] is on record?
Its AC50 is 2.59 µM [rising, full curve, poor fit].

With CCCCNS(=O)(=O)c1ccc2nc(-c3cccs3)cc(C(=O)NCC(OC)OC)c2c1 as the compound, how does the AC50 [1] read?
The AC50 was 6.51 µM [rising, single point].

Which AC50 [1] does the source give for NS(=O)(=O)c1ccc(CNC(=O)c2cc(=O)c3cc(Cl)ccc3o2)cc1 here?
Its AC50 is 0.501 µM [rising, partial curve, poor fit].

With C/C(Cl)=C\Cn1c(O)c(N=NC(N)=S)c2cc(Br)ccc21 as the compound, how does the AC50 [1] read?
The AC50 was 12.6 µM [rising, partial curve].

What about the AC50 [2] of the same compound?
The AC50 was 7.08 µM [falling, partial curve].

With Cc1ccc(C)c(NC(=O)C2(C)CC3c4ccccc4C2c2ccccc23)c1 (stereo unspecified) as the compound, how does the AC50 [1] read?
Its AC50 is 6.31 µM [rising, full curve, poor fit].

Which AC50 [1] does the source give for Cc1c(Nc2nc3ccccc3nc2NS(=O)(=O)c2cccs2)c(=O)n(-c2ccccc2)n1C here?
The AC50 was 29.1 µM [rising, single point].

Which AC50 [1] does the source give for Cc1cc(C)c2c(c1)/C(=N/NS(=O)(=O)c1ccc(Br)cc1)CCC2 here?
Its AC50 is 8.2 µM [falling, partial curve].

For COc1ccc(NC(=O)CSc2nccc(C)n2)cc1, which AC50 [1] is on record?
Its AC50 is 23.1 µM [rising, partial curve, poor fit].

Which AC50 [1] does the source give for O=C(CSc1n[nH]c(=O)[nH]c1=O)c1ccccc1[N+](=O)[O-] here?
The AC50 was 10 µM [falling, partial curve, poor fit].

With COc1ccc(/C=N/NC(=O)c2ccc3c(c2)NC(=O)C(C)(C)O3)cc1OC as the compound, how does the AC50 [1] read?
Its AC50 is 11.2 µM [rising, partial curve, poor fit].

What about the AC50 [2] of the same compound?
The AC50 was 11.2 µM [falling, partial curve].

With CCSc1nsc(NC(=O)Nc2cccc(F)c2)n1 as the compound, how does the AC50 [1] read?
The AC50 was 0.398 µM [falling, full curve].

With Cc1cc(C)c2[nH]c(=O)c(CN(CC3CCCO3)C(=O)c3cnccn3)cc2c1 (stereo unspecified) as the compound, how does the AC50 [1] read?
The AC50 was 35.5 µM [rising, single point].

For CCS(=O)(=O)c1nc(S(=O)(=O)c2ccc(Cl)cc2)c(NCCOC)s1, which AC50 [1] is on record?
Its AC50 is 5.62 µM [falling, single point].

For COc1ccc(OCc2nc(N)nc(Nc3ccccc3)n2)cc1, which AC50 [1] is on record?
The AC50 was 23.1 µM [rising, partial curve, poor fit].

Which AC50 [1] does the source give for CC(C)CNC(=O)CCc1c[nH]c2ccccc12 here?
The AC50 was 35.5 µM [falling, single point].

For COc1cc(OC)cc(C(=O)NNC(=S)NC2CC2)c1, which AC50 [1] is on record?
Its AC50 is 35.5 µM [falling, single point].

With COc1ccc(C2NC(=O)NC(C)=C2C(=O)OC2CCCC(C)C2)cc1 (stereo unspecified) as the compound, how does the AC50 [1] read?
Its AC50 is 1 µM [rising, partial curve, poor fit].

For COc1ccc(C(=O)OCC(=O)N2C(C)CCCC2C)cc1[N+](=O)[O-] (stereo unspecified), which AC50 [1] is on record?
The AC50 was 3.98 µM [rising, full curve].

For O=C(CCSCCc1ccccn1)Nc1ccccn1, which AC50 [1] is on record?
The AC50 was 14.1 µM [falling, partial curve, poor fit].

For COc1cccc2cc(C(=O)OCc3ccccc3)c(=O)oc12, which AC50 [1] is on record?
The AC50 was 12.6 µM [falling, partial curve, poor fit].

For COc1ccc(-c2nn(-c3ccccc3)cc2CNC(=O)c2cccc([N+](=O)[O-])c2)cc1, which AC50 [1] is on record?
The AC50 was 14.6 µM [rising, single point].

Which AC50 [1] does the source give for COc1ccc([N+](=O)[O-])cc1C1NN=C(c2ccccc2O)S1 (stereo unspecified) here?
Its AC50 is 25.1 µM [falling, single point].

Which AC50 [1] does the source give for O=C(Cc1cc(=O)[nH]c(=O)[nH]1)NCc1ccc(Cl)cc1 here?
Its AC50 is 29.1 µM [rising, partial curve, poor fit].

With CC(=O)Nc1ccc(NC(=O)C(C)OC(=O)CCCN=C2NS(=O)(=O)c3ccccc32)cc1 (stereo unspecified) as the compound, how does the AC50 [1] read?
Its AC50 is 25.9 µM [falling, single point].

For COC(=O)c1cc(-c2ccc(Br)cc2)n[nH]1, which AC50 [1] is on record?
The AC50 was 3.66 µM [rising, partial curve, poor fit].

With c1ccc(-n2cc(CN3CCCC(CN4CCCC4)C3)c(-c3ccc4c(c3)OCO4)n2)cc1 (stereo unspecified) as the compound, how does the AC50 [1] read?
Its AC50 is 35.5 µM [falling, single point].

For CCOc1ccccc1Nc1cc(C)c2cccc(C)c2n1, which AC50 [1] is on record?
Its AC50 is 25.1 µM [rising, single point].

For COc1ccc(Nc2oc(-c3cccs3)nc2C#N)cc1, which AC50 [1] is on record?
The AC50 was 35.5 µM [falling, single point].

For S=c1[nH]c2cc3c(cc2[nH]1)OCCO3, which AC50 [1] is on record?
Its AC50 is 6.31 µM [falling, single point].

Which AC50 [1] does the source give for O=C(N/N=C/c1ccc[nH]1)c1cccc(Br)c1 here?
Its AC50 is 29.1 µM [falling, single point].

With CN(C)S(=O)(=O)c1ccc(C(=O)OCc2nnc(-c3ccccc3)o2)cc1 as the compound, how does the AC50 [1] read?
The AC50 was 0.562 µM [rising, full curve, poor fit].

For O=c1oc2ccc(Cl)cc2cc1-c1nnc(Nc2cccc(C(F)(F)F)c2)s1, which AC50 [1] is on record?
The AC50 was 0.103 µM [rising, full curve, poor fit].

For COc1ccc(OC)c(CN2CCN(CC(=O)Nc3ccccc3C(=O)NC3CC3)CC2)c1, which AC50 [1] is on record?
Its AC50 is 0.651 µM [rising, single point].

With c1ccc(-c2ncc(-c3ccn[nH]3)s2)cc1 as the compound, how does the AC50 [1] read?
The AC50 was 11.2 µM [falling, partial curve].

Which AC50 [1] does the source give for COc1ccc(Cn2c(=N)c(C(=O)NCC3CCCO3)cc3c(=O)n4ccccc4nc32)cc1 (stereo unspecified) here?
The AC50 was 35.5 µM [falling, single point].

With c1ccc(-c2csc(-c3ccc(-c4csnn4)cc3)n2)cc1 as the compound, how does the AC50 [1] read?
Its AC50 is 0.794 µM [rising, full curve, poor fit].

For CC1=NN(C(=O)CSCc2ccccc2)C(O)(c2ccccc2)C1 (stereo unspecified), which AC50 [1] is on record?
Its AC50 is 35.5 µM [falling, single point].

For CCOc1cc(/C=N\NC(=O)c2ccc(NC(=O)C(C)(C)C)cc2)ccc1OC(=O)c1ccc(OC)cc1, which AC50 [1] is on record?
Its AC50 is 0.116 µM [falling, full curve, poor fit].

With Cc1c(C#N)sc2nc(-c3ccccc3)nc(N3CCCC3)c12 as the compound, how does the AC50 [1] read?
Its AC50 is 32.6 µM [falling, single point].

For COc1ccccc1C(=O)N(CCN(C)C)c1nc2cc(C)cc(C)c2s1, which AC50 [1] is on record?
The AC50 was 35.5 µM [falling, single point].

Which AC50 [1] does the source give for COCCN(C(=O)C(C)C)c1nnc(-c2ccc(C(C)(C)C)cc2)s1 here?
The AC50 was 31.6 µM [rising, single point].

Which AC50 [1] does the source give for CC(C)(C)C(=O)N/C(N)=N/c1nc2ccccc2o1 here?
The AC50 was 11.2 µM [falling, partial curve, poor fit].

For N/C(=N\OC(=O)c1ccc(Cl)cc1)c1ccn[nH]1, which AC50 [1] is on record?
Its AC50 is 14.1 µM [falling, single point].

Which AC50 [1] does the source give for CC(C)n1cnc2c(N(C)c3ccccc3)nc(N(CCN(C)C)Cc3ccccc3)nc21 here?
The AC50 was 20 µM [falling, partial curve, poor fit].

For O=C(c1cccnc1NCc1ccc(F)cc1)N1CCOCC1, which AC50 [1] is on record?
Its AC50 is 1.41 µM [rising, partial curve, poor fit].

For N#CCCn1nnc(-c2ccccc2F)n1, which AC50 [1] is on record?
Its AC50 is 18.4 µM [rising, partial curve, poor fit].

For OCCNCC(O)CN1c2ccccc2Sc2ccccc21 (stereo unspecified), which AC50 [1] is on record?
The AC50 was 25.1 µM [falling, single point].

With COc1ccc(C(=O)NCCOc2ccccc2Cl)c(OC)c1OC as the compound, how does the AC50 [1] read?
The AC50 was 0.112 µM [rising, full curve, poor fit].

With Cc1nn(-c2ccccc2)c(Cl)c1C(=O)Nc1c(C)n(C)n(-c2ccccc2)c1=O as the compound, how does the AC50 [1] read?
Its AC50 is 0.1 µM [falling, full curve, poor fit].

For CCN(CC)S(=O)(=O)c1ccc(N2CCOCC2)c(NC(=O)Cc2cccc3ccccc23)c1, which AC50 [1] is on record?
The AC50 was 18.4 µM [rising, partial curve, poor fit].

For O=C(CSc1nc(-c2ccccc2)cs1)NCCN1C(=O)CSC1=O, which AC50 [1] is on record?
The AC50 was 20 µM [rising, partial curve, poor fit].

For Cc1cc(Cl)ccc1OCc1cn2cccnc2n1, which AC50 [1] is on record?
Its AC50 is 0.708 µM [rising, full curve].

With COc1cc(/C=C(\C#N)C(=O)Nc2ccccn2)ccc1O as the compound, how does the AC50 [1] read?
The AC50 was 10 µM [falling, partial curve].

With C=CCn1nc2n(c1=O)-c1ccccc1SC2 as the compound, how does the AC50 [1] read?
Its AC50 is 11.2 µM [rising, single point].

For Cc1noc(C)c1C(=O)N(C)CC(=O)Nc1ccc(F)c(F)c1F, which AC50 [1] is on record?
Its AC50 is 18.4 µM [rising, single point].

With COc1ccc(NC(=O)c2oc3ccccc3c2NC(=O)C2CC2)cc1OC as the compound, how does the AC50 [1] read?
The AC50 was 0.501 µM [falling, full curve].
